From publication PMC3178645
Results are given in words; binding and its absence hold for the method and conditions named. In cells and extracts the contact can be indirect. Some entries that bind do so weakly or less than the wild type.

By UniProt entry, the sequences of proteins in these tests, tags left out. Residues count along the entry.
UniProt Q99418, residues 261-387: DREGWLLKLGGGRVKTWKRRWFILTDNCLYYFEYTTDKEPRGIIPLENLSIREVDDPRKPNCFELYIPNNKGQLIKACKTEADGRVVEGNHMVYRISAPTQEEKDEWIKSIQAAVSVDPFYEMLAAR
UniProt Q6DN90: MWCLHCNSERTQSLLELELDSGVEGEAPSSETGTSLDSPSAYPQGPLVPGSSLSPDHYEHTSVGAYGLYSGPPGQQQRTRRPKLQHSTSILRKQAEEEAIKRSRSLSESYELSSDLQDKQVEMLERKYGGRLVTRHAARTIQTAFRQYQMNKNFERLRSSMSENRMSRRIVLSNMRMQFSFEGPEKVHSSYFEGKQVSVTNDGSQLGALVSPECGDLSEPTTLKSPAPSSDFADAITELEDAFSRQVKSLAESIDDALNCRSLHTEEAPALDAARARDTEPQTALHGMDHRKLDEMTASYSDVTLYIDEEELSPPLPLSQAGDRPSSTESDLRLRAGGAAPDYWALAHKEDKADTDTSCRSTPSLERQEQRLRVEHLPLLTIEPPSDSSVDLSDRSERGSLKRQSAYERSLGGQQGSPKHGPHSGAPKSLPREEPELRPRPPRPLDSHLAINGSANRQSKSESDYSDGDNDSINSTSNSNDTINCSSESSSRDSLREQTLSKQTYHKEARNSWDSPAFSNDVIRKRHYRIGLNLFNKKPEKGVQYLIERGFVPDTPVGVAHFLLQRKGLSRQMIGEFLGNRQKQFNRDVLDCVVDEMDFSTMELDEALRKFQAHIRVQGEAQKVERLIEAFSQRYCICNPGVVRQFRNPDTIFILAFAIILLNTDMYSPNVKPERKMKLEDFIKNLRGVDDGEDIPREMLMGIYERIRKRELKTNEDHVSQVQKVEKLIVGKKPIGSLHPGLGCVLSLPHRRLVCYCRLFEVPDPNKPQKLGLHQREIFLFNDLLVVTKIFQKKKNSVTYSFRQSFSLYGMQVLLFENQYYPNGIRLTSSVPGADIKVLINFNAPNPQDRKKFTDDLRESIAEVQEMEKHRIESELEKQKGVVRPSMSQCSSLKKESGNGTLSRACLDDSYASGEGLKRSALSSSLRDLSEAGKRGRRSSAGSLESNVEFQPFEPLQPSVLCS

How the values were obtained:
[1] = target: GST-tagged ARNO PH domain (human) (UniProt Q99418); assay: pull-down; 25 ug GST-fused PH domain on glutathione-beads incubated with 200 ug of lysate of cells expressing Her2-EGFP, GGA3 buffer, 4°C, 1 h; anti-GFP immunoblot; cells with serum, starved, or EGF; only the target purified
[2] = target: GEP100, endogenous in H522 lung adenocarcinoma cells (human (endogenous in H522)) (UniProt Q6DN90); assay: co-IP; endogenous proteins, H522 cell lysates (250 ug); anti-GEP100 immunoprecipitation, anti-Her2 immunoblot; cells with serum or serum-starved 24 h
[3] = target: GEP100, endogenous in H522 lung adenocarcinoma cells (human (endogenous in H522)) (UniProt Q6DN90); assay: co-IP; H522 cells expressing EGFP-GEP100-PH or EGFP alone; anti-GEP100 and anti-GFP immunoprecipitation from total cell lysates (250 ug), anti-Her2 immunoblot

binding [1]	binding [2]	binding [3]	Substance
no binding	–	–	Her2 tagged with enhanced green fluorescence protein (EGFP) at the C-terminus, wild type (from UniProt P04626-1 23-1255) (receptor)
–	binds	binds	Her2, endogenous (overexpressed) in H522 lung adenocarcinoma cells (from UniProt P04626 23-1255) (receptor)
